# Earlier results in patent publication US20120122966A1, “USE OF ORGANIC DYES AS ANALGESIC AGENTS” (priority 2009, published 2012).
# Settings: in vivo; cited from earlier work
smiles,measurement,value
CN1CC[C@]23c4c5ccc(O)c4O[C@H]2[C@@H](O)C=C[C@H]3[C@H]1C5 [morphine],Acute toxicity LD50,170 mg/kg
